The list shows a part of the results.
compound: C/C(=N\NC(=O)C1=CC(=CC=C1)S(=O)(=O)N2CCOCC2)/C3=C(C=CC(=C3)Cl)O; assay: log2 fold change, soluble protein after heating vs DMSO (PISA); higher = thermal stabilisation; K562 lysate, 10 uM; active = over 0.2 and 3.5 SD of the protein, either way, in both replicates (recomputed)
In short: (§1)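 To prepare the extract, K562 pellets were dounce-homogenised in PBS pH 7.4 with 1 mM MgCl2, giving crude material at 1 mg/mL protein. This was treated with 10 μM compound for 30 min, then heated in aliquots for 3 min over 48°C-58°C before pooling and addition of NP-40 to 0.5% at 4°C. Centrifugation at 21,000xg for 90 min left soluble protein in the supernatant, which TMTpro 16plex LC-MS/MS quantified with equalised channel sums. Results are log-two fold changes in thermal stability compared with solvent controls, from duplicates.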

Sequences of proteins named here, by UniProt entry; tags and fusion partners are left off. A change or cut given only in a name is not applied to a line headed by its entry.
UniProt Q15013: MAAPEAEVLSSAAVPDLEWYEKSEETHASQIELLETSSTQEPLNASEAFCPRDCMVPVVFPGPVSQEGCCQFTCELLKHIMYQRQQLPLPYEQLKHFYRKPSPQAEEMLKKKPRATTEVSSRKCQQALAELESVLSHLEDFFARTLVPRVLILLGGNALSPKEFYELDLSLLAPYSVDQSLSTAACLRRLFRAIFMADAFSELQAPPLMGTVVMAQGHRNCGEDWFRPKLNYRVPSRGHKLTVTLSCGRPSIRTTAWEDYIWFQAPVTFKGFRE
UniProt Q9NU23: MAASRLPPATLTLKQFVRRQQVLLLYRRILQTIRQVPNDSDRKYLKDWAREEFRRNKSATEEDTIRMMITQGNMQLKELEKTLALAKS
UniProt Q9H063: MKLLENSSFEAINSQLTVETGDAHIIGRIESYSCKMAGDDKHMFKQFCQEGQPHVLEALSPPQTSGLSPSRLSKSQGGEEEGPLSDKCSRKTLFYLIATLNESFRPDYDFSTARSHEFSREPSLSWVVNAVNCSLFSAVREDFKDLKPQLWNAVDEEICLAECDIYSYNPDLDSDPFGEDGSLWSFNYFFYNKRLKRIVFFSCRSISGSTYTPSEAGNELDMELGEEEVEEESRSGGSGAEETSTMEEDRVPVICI
UniProt Q5VWZ2: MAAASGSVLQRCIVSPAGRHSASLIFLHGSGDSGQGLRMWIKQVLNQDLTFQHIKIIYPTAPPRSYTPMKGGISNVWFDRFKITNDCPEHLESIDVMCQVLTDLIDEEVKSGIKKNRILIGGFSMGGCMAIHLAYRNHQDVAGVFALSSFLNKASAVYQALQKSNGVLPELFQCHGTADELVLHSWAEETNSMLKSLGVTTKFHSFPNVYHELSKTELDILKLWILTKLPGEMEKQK
UniProt Q9UNF1: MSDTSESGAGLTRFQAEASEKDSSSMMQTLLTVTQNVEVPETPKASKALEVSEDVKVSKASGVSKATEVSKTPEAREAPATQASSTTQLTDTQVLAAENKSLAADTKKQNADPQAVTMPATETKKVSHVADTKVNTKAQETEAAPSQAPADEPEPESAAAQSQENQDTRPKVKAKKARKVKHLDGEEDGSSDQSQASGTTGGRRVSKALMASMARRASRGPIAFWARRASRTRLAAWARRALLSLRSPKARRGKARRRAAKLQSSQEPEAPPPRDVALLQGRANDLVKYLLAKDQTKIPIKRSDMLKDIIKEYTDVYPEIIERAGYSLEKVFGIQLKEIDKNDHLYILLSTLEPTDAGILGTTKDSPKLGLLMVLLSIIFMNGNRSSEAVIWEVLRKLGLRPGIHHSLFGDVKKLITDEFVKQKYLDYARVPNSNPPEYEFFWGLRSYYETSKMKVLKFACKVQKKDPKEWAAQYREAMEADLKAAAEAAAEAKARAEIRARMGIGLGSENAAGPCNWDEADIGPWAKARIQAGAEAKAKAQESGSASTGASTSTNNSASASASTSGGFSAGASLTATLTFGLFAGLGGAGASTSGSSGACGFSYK
UniProt Q9P0L2: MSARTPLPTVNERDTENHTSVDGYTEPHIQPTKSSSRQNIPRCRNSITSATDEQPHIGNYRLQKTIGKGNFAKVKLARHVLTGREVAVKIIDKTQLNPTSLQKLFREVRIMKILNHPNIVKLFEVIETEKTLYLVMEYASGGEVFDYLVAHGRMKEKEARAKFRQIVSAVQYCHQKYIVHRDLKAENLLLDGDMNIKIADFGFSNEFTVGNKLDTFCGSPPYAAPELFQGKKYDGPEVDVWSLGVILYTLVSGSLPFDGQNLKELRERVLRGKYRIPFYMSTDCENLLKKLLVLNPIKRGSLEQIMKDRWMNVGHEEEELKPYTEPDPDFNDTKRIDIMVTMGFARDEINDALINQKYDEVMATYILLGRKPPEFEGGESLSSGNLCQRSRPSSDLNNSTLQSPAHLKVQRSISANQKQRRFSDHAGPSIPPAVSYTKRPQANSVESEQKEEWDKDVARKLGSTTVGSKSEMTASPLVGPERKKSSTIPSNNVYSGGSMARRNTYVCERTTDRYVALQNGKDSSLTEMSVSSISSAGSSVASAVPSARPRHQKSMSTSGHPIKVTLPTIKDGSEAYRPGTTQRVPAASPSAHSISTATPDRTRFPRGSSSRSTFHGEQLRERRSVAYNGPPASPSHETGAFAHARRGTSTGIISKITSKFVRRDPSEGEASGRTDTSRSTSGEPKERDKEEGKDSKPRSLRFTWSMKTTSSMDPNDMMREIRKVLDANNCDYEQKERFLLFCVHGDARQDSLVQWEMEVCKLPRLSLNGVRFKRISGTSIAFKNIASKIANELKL
UniProt Q9Y383: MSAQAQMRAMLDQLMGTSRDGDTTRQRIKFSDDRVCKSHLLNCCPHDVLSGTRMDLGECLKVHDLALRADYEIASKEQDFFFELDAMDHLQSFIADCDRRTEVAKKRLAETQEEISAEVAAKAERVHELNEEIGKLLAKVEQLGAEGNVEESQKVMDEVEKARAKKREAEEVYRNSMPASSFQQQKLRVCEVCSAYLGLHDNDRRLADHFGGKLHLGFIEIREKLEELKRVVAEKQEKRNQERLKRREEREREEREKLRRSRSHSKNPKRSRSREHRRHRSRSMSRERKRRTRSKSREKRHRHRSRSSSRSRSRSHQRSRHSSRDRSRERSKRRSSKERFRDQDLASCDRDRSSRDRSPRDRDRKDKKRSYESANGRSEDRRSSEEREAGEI
UniProt O43318: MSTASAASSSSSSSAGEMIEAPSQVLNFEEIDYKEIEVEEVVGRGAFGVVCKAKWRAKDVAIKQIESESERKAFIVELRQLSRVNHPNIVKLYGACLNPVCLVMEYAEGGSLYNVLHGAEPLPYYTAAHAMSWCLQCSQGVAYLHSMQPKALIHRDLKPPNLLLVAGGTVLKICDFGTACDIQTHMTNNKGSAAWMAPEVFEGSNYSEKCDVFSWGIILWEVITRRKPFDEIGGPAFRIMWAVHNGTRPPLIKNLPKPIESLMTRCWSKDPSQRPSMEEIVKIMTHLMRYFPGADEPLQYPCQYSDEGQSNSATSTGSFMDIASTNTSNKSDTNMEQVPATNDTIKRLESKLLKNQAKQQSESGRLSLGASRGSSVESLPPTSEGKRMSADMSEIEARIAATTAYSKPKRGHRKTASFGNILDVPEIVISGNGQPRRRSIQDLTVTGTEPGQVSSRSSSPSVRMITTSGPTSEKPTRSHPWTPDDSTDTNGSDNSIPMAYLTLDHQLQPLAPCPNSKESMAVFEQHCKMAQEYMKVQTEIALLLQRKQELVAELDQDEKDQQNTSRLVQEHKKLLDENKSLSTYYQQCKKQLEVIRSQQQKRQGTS
UniProt Q8IWC1: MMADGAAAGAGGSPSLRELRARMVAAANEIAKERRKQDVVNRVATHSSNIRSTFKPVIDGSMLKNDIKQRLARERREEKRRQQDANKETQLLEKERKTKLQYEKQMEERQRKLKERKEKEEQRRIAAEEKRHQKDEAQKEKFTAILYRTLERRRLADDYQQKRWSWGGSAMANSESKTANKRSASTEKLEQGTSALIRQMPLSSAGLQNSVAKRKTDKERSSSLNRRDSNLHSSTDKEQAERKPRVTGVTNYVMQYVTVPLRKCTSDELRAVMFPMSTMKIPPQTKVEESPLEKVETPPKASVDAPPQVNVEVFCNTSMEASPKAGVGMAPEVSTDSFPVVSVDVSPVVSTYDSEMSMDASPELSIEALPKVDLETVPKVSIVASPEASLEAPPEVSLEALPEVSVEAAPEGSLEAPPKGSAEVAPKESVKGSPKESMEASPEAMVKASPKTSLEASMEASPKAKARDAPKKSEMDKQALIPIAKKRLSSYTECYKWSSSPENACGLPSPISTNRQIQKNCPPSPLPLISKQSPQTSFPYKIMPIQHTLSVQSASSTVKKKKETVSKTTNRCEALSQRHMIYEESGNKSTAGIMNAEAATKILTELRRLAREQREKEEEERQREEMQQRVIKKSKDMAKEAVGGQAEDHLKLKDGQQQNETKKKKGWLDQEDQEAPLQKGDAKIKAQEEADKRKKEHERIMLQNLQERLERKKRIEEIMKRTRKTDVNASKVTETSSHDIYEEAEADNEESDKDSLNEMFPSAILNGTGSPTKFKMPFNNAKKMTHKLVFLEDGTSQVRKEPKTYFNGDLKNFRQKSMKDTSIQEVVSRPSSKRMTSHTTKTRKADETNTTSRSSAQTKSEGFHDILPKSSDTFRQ
UniProt Q8IW41: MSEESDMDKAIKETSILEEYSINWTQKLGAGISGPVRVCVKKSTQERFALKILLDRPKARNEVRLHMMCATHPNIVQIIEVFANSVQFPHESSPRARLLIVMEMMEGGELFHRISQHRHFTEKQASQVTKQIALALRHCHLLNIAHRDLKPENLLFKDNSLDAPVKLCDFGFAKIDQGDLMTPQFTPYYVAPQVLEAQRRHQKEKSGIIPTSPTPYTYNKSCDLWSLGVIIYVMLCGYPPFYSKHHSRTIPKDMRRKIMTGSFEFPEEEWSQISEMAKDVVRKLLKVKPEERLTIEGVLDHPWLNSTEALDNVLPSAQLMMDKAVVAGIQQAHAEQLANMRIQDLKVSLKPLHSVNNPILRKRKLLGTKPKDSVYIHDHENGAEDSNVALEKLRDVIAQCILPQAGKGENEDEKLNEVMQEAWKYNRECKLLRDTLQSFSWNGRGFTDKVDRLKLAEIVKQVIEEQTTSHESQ
UniProt O95232: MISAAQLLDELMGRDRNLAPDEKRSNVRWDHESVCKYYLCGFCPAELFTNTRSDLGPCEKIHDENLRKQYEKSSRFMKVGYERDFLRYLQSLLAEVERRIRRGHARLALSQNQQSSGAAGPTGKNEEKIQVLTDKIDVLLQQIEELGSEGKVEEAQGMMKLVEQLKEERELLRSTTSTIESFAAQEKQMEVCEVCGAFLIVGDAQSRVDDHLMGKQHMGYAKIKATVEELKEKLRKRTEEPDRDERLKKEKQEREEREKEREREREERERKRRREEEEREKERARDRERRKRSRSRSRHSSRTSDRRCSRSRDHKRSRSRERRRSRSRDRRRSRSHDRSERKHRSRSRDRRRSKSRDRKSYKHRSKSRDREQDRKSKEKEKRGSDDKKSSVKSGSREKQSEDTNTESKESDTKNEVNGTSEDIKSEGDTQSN
UniProt Q9H0U3: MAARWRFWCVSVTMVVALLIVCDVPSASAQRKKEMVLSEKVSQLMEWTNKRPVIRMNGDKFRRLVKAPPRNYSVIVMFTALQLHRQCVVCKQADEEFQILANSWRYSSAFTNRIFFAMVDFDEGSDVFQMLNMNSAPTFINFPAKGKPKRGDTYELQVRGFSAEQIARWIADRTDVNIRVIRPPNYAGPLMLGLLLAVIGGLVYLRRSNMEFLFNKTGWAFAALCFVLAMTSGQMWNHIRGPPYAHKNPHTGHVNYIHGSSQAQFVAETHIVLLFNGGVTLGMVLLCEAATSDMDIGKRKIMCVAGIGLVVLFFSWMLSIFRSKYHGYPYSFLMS
UniProt Q96GA3: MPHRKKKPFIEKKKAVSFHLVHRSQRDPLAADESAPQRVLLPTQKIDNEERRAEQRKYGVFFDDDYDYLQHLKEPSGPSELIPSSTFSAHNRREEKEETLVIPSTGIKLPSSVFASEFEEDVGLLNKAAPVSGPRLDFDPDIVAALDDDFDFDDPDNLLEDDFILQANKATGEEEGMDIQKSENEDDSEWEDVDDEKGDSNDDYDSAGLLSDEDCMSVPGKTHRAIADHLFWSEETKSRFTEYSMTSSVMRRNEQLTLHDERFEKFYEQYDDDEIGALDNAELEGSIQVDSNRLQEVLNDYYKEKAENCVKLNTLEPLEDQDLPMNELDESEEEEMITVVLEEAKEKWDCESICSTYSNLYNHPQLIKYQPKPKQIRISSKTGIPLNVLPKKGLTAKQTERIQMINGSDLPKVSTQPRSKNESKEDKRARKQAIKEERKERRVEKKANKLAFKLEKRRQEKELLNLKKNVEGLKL
UniProt P45983: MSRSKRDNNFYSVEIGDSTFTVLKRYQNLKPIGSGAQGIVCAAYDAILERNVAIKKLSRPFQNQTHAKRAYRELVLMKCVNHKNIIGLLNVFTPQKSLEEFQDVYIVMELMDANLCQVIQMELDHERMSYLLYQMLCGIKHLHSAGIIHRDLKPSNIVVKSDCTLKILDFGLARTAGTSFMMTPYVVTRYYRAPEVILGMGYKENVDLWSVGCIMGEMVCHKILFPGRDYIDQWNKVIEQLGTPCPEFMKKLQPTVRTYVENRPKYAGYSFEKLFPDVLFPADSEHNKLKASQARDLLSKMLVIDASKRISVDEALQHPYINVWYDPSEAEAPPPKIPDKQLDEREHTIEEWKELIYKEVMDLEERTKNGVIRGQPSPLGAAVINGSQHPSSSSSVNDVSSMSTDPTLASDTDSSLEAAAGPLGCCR

log2 fold change, inactive:
MAD2L1BP isoform 3 (UniProt Q15013) -0.081, LTN1 isoform 3 (UniProt O94822) 0.021, LYRM2 (UniProt Q9NU23) -0.026, LYSMD3 (UniProt Q7Z3D4) -0.051, MAP2K2 (UniProt P36507) 0.005, MAGEB2 (UniProt O15479) -0.097, MAF1 (UniProt Q9H063) 0.091, LYAR (UniProt Q9NX58) -0.004, MANBA (UniProt O00462) -0.018, MAP1B (UniProt P46821) -0.012, LYPLAL1 (UniProt Q5VWZ2) 0.052, MADD isoform 4 (UniProt Q8WXG6) -0.049, MAGEC1 (UniProt O60732) -0.024, MAGI3 isoform 1 (UniProt Q5TCQ9) -0.015, MAN1A2 (UniProt O60476) -0.017, LYSMD2 (UniProt Q8IV50) -0.143, MAGED2 (UniProt Q9UNF1) 0.021, MAPRE2 (UniProt Q15555) 0.045, MAP3K20 isoform 2 (UniProt Q9NYL2) -0.187, MAT2B (UniProt Q9NZL9) -0.004, LYSMD1 (UniProt Q96S90) -0.033, MAP2K3 isoform 3 (UniProt P46734) 0.061, MARK1 (UniProt Q9P0L2) 0.006, LUC7L2 (UniProt Q9Y383) 0.019, MAP2K1 (UniProt Q02750) 0.04, MAP4 isoform 5 (UniProt P27816) 0.041, MAML2 (UniProt Q8IZL2) -0.107, MAGEB1 (UniProt P43366) -0.081, MAP3K7 (UniProt O43318) -0.072, MAP7D3 (UniProt Q8IWC1) 0.053, MARCKS (UniProt P29966) 0.096, MAPKAPK3 (UniProt Q16644) -0.088, LTF (UniProt P02788) 1.79, MAPKAPK5 (UniProt Q8IW41) -0.045, LUC7L3 (UniProt O95232) 0.018, MAGT1 (UniProt Q9H0U3) -0.007, LTV1 (UniProt Q96GA3) -0.113, LYZ (UniProt P61626) 1.39, MAPK8 isoform 3 (UniProt P45983) -0.039

compound: C1=CC(=CC=C1C2=NC3=C(N2)C=C(C=C3)C(=O)N)OC4=CC=C(C=C4)Cl; assay: as above
In short: as §1

log2 fold change, inactive:
MAD2L1BP isoform 3 (UniProt Q15013) 0.002, LTN1 isoform 3 (UniProt O94822) -0.065, LYRM2 (UniProt Q9NU23) -0.015, LYSMD3 (UniProt Q7Z3D4) 0.044, MAP2K2 (UniProt P36507) 0.023, MAGEB2 (UniProt O15479) 0.01, MAF1 (UniProt Q9H063) 0.051, LYAR (UniProt Q9NX58) 0, MANBA (UniProt O00462) 0.023, MAP1B (UniProt P46821) 0.009, LYPLAL1 (UniProt Q5VWZ2) 0.015, MADD isoform 4 (UniProt Q8WXG6) 0.012, MAGEC1 (UniProt O60732) -0.022, MAGI3 isoform 1 (UniProt Q5TCQ9) -0.047, MAN1A2 (UniProt O60476) 0.01, LYSMD2 (UniProt Q8IV50) -0.031, MAGED2 (UniProt Q9UNF1) 0.048, MAPRE2 (UniProt Q15555) 0.013, MAP3K20 isoform 2 (UniProt Q9NYL2) -0.029, MAT2B (UniProt Q9NZL9) -0.033, LYSMD1 (UniProt Q96S90) 0.107, MAP2K3 isoform 3 (UniProt P46734) 0.03, MARK1 (UniProt Q9P0L2) -0.018, LUC7L2 (UniProt Q9Y383) -0.036, MAP2K1 (UniProt Q02750) -0.026, MAP4 isoform 5 (UniProt P27816) -0.251, MAML2 (UniProt Q8IZL2) -0.017, MAGEB1 (UniProt P43366) -0.066, MAP3K7 (UniProt O43318) -0.015, MAP7D3 (UniProt Q8IWC1) 0.281, MARCKS (UniProt P29966) -0.011, MAPKAPK3 (UniProt Q16644) 0.042, LTF (UniProt P02788) -0.146, MAPKAPK5 (UniProt Q8IW41) 0.016, LUC7L3 (UniProt O95232) -0.021, MAGT1 (UniProt Q9H0U3) -0.004, LTV1 (UniProt Q96GA3) -0.005, LYZ (UniProt P61626) -0.247, MAPK8 isoform 3 (UniProt P45983) -0.091
